Results deposited as PubChem BioAssay AID1259308 (NCATS, 2017)

Assay: 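Genes whose loss raises luciferase production in HEK293 cells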 (primary screen)
System: human HEK293 embryonic kidney cells stably expressing firefly luciferase (HEK-CMV-Luc2-Hygro)
Reagent: single siRNA against human genes, 0.8 pmol siRNA per well
Time to read-out: 72 h
Measured: 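Reporter luminescence and viable-cell signal on separate replicate plates, given as percent of non-targeting control and median/MAD z-scores, plus per-cell luciferase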
Scale: total luciferase, z-score and total luciferase, % of control: higher = more reporter protein produced
Hit rule: 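Active when the median/MAD z-score for overall luciferase is greater than 3; a gene was taken forward for validation with new siRNAs if at least two of its three siRNAs passed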
Calls: active = raised luciferase; inactive = no rise
In all, the deposit lists about 59,000 reagents; below is an unselected part. About 1,510 of all reagents (2.6%) count as active. 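Calls use total luciferase alone and ignore viability, so some active siRNAs may act by altering cell number.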 Unmarked entries are inactive. Further read-outs or replicates are left out here. Reagent sequences are not shown.

Depletion of R3HDML (R3H domain containing like) [SID160757958] resulted in: total luciferase, z-score 0.136; total luciferase, % of control 84.6.
For R3HDML (R3H domain containing like) [SID160757959], the values are total luciferase, z-score 0.164; total luciferase, % of control 85.1.
Against R3HDML (R3H domain containing like) [SID160757960] the deposit lists total luciferase, z-score 1.43; total luciferase, % of control 110.
With knock-down of SLC38A1 [SID160750769], the screen gave total luciferase, z-score -1.27; total luciferase, % of control 56.6.
Depletion of SLC38A1 [SID160750770] gave: total luciferase, z-score 0.244; total luciferase, % of control 86.7.
SLC38A1 [SID160750771] showed total luciferase, z-score -1.04; total luciferase, % of control 61.3.
With knock-down of NEK5 (NIMA related kinase 5) [SID160731109] the results were total luciferase, z-score -1.65; total luciferase, % of control 49.2.
After knock-down of NEK5 (NIMA related kinase 5) [SID160764571], the record shows total luciferase, z-score 0.395; total luciferase, % of control 89.7.
Against NEK5 (NIMA related kinase 5) [SID160764572] the deposit lists total luciferase, z-score 0.2; total luciferase, % of control 85.9.
After knock-down of EEIG1 (estrogen-induced osteoclastogenesis regulator 1) [SID160766824] the results were total luciferase, z-score 3 (active); total luciferase, % of control 142.
After knock-down of EEIG1 (estrogen-induced osteoclastogenesis regulator 1) [SID160766825], the screen gave total luciferase, z-score 0.235; total luciferase, % of control 86.6.
Knock-down of EEIG1 (estrogen-induced osteoclastogenesis regulator 1) [SID160766827] came out at: total luciferase, z-score 3.52 (active); total luciferase, % of control 152.
With knock-down of CENPP (centromere protein P) [SID160767318], the record shows total luciferase, z-score -0.297; total luciferase, % of control 76.
Knock-down of CENPP (centromere protein P) [SID160767319] came out at: total luciferase, z-score 0.275; total luciferase, % of control 87.4.
CENPP (centromere protein P) [SID160767320] showed total luciferase, z-score 1.7; total luciferase, % of control 116.
For SASS6 (SAS-6 centriolar assembly protein) [SID160732607] the deposit lists total luciferase, z-score -1.5; total luciferase, % of control 52.1.
With knock-down of SASS6 (SAS-6 centriolar assembly protein) [SID160760076] the results were total luciferase, z-score -0.706; total luciferase, % of control 67.8.
After knock-down of SASS6 (SAS-6 centriolar assembly protein) [SID160760077], the screen gave total luciferase, z-score -0.621; total luciferase, % of control 69.5.
With knock-down of ABCA8 (ATP binding cassette subfamily A member 8) [SID160728236], the screen gave total luciferase, z-score 0.153; total luciferase, % of control 84.9.
For ABCA8 (ATP binding cassette subfamily A member 8) [SID160728237], the values are total luciferase, z-score 0.103; total luciferase, % of control 83.9.
Against ABCA8 (ATP binding cassette subfamily A member 8) [SID160728239], the entry reads total luciferase, z-score 1.45; total luciferase, % of control 111.
Against ZHX3 (zinc fingers and homeoboxes 3) [SID160735330] the deposit lists total luciferase, z-score 2.15; total luciferase, % of control 125.
For ZHX3 (zinc fingers and homeoboxes 3) [SID160735331], the entry reads total luciferase, z-score 1.51; total luciferase, % of control 112.
After knock-down of ZHX3 (zinc fingers and homeoboxes 3) [SID160735332], the screen gave total luciferase, z-score 0.323; total luciferase, % of control 88.3.
For NDUFS5 (NADH:ubiquinone oxidoreductase subunit S5) [SID160777908], the entry reads total luciferase, z-score 0.387; total luciferase, % of control 89.6.
NDUFS5 (NADH:ubiquinone oxidoreductase subunit S5) [SID160777909] showed total luciferase, z-score -0.0854; total luciferase, % of control 80.2.
NDUFS5 (NADH:ubiquinone oxidoreductase subunit S5) [SID160777910] scored total luciferase, z-score 0.862; total luciferase, % of control 99.
Against ADAM32 (ADAM metallopeptidase domain 32) [SID160761103], the values are total luciferase, z-score 0.00734; total luciferase, % of control 82.
After knock-down of ADAM32 (ADAM metallopeptidase domain 32) [SID160761104], the record shows total luciferase, z-score -0.657; total luciferase, % of control 68.8.
Silencing of ADAM32 (ADAM metallopeptidase domain 32) [SID160761106] gave: total luciferase, z-score 1.22; total luciferase, % of control 106.
For CPEB3 (cytoplasmic polyadenylation element binding protein 3) [SID160732033], the values are total luciferase, z-score -0.965; total luciferase, % of control 62.7.
Against CPEB3 (cytoplasmic polyadenylation element binding protein 3) [SID160732042], the entry reads total luciferase, z-score 0.828; total luciferase, % of control 98.3.
Knock-down of CPEB3 (cytoplasmic polyadenylation element binding protein 3) [SID160732051] gave: total luciferase, z-score 2.44; total luciferase, % of control 130.
Against HNRNPLL (heterogeneous nuclear ribonucleoprotein L like) [SID160754390] the deposit lists total luciferase, z-score -0.635; total luciferase, % of control 69.2.
Knock-down of HNRNPLL (heterogeneous nuclear ribonucleoprotein L like) [SID160754391] gave: total luciferase, z-score -0.332; total luciferase, % of control 75.3.
Knock-down of HNRNPLL (heterogeneous nuclear ribonucleoprotein L like) [SID160754392] came out at: total luciferase, z-score -1.36; total luciferase, % of control 54.9.
For CLPP [SID160719698], the values are total luciferase, z-score 2.13; total luciferase, % of control 124.
With knock-down of CLPP [SID160719699], the record shows total luciferase, z-score 0.68; total luciferase, % of control 95.4.
Against CLPP [SID160719700], the entry reads total luciferase, z-score 4.37 (active); total luciferase, % of control 169.
LBX2 (ladybird homeobox 2) [SID160753351] gave total luciferase, z-score 0.387; total luciferase, % of control 89.6.
With knock-down of LBX2 (ladybird homeobox 2) [SID160753352] the results were total luciferase, z-score -0.306; total luciferase, % of control 75.8.
With knock-down of LBX2 (ladybird homeobox 2) [SID160753353] the results were total luciferase, z-score -0.676; total luciferase, % of control 68.4.

Copied from the listing for reference:
ADAM32 (ADAM metallopeptidase domain 32) [SID160761104]: total luciferase, z-score = -0.657; total luciferase, % of control = 68.8
ADAM32 (ADAM metallopeptidase domain 32) [SID160761106]: total luciferase, z-score = 1.22; total luciferase, % of control = 106
CPEB3 (cytoplasmic polyadenylation element binding protein 3) [SID160732033]: total luciferase, z-score = -0.965; total luciferase, % of control = 62.7
CPEB3 (cytoplasmic polyadenylation element binding protein 3) [SID160732042]: total luciferase, z-score = 0.828; total luciferase, % of control = 98.3
CPEB3 (cytoplasmic polyadenylation element binding protein 3) [SID160732051]: total luciferase, z-score = 2.44; total luciferase, % of control = 130
HNRNPLL (heterogeneous nuclear ribonucleoprotein L like) [SID160754390]: total luciferase, z-score = -0.635; total luciferase, % of control = 69.2
HNRNPLL (heterogeneous nuclear ribonucleoprotein L like) [SID160754391]: total luciferase, z-score = -0.332; total luciferase, % of control = 75.3
